Assay results as given in PMC7363780.

T1: Cip1-13myc (S. cerevisiae) (UniProt Q02606)
T1 sequence: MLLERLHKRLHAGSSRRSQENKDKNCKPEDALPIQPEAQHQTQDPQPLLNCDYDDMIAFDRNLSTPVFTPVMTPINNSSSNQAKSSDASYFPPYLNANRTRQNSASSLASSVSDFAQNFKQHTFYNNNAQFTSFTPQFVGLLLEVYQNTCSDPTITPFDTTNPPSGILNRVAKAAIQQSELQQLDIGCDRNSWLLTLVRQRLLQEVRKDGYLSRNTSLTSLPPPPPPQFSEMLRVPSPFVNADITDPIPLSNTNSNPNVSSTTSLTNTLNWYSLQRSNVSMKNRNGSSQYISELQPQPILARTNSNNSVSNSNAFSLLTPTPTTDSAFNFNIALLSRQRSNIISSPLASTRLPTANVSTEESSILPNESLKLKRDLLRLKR

B1: Caf120 (protein, UniProt P53836 1-1060)
chain: MRIFSGDNKVVDSLASNPGLMSPSNFGGDFGSRLKVNVTSKKKLNDSSPTSPMESSPVSPELVPILTLLNAHTHRRYHEGVFLILQDLNNNGTHAARKWKDVYGVLLGTQLALWDAKELAEFTDPSCPVSEKKLKEVASKPTYINLTDATLRTLDNSDNIVMECGKNLTNALVVSTTLKNRYFLQFGNKESFNAWNSAIRLCLYECSSLQEAYTGAFISSRGAKLGDIRILLTNRKYDYKDWVSVRFGAGMPWKRCYAVISQSSSKKKGHFGEINLYENDKKVKKNHAMATIVEAKALYAVYPSSPKLIDSSTIIKVVGSVKFEKKESAQEKDVFIMPEKHQAVPSYDTIIRFLIPAMDTFKLYGRPEKLLSSKNDPHSLLFGLPVLPHIYYLEVEDLLPLTNSVSSLHWSNNEWKEHISDILQRKIAQGYCGCNSTSNITSPLPSPFLGSADLFERADGVLSPKLSYGSKSSSNNSSKNSLPKRERVKLSSSSEQDLNNSDSPSIKRKSPPLVISESPHKVHTPTDASFRTRVTEGSPYAKQRHPKPFASSVNDSPSDRAKSRTVPYNNNDRKATTPEKFERGETSCGKNVDESLEKVRNMKLEIPESNFDKFMTDKNLLSVDSKCSNEKKLSVESDLSAIYEKYSNGPFGHTEGLNGSSDETYLRFQRASVHSESNYNSRKSFTPSDFSNGNEEEHAVLQELNSLTQRINELGMESINSNSDSDRINGSYSQVDFGNNNDEDDMNLFDPDFMAQDQLRAEERDYNKDDRTPLAKVPAAFQSTGLGITPDDDIERQYITEHRSRHEVPKRSPEKPSNPLEIGNPYAKPGTRLNTTHTHSKTDRSITPQRGQPVPSGQQISSYVQPANINSPNKMYGANNSAMGSPRNPKTRAPPGPYNQGWNNRPSPSNIYQRPHPSDTQPQAYHLPGNPYSTGNRPNMQAQYHPQQVPMPILQQPNRPYQPYAMNTHMGSPGGYAGAAPPFQPANVNYNTRPQQPWPTPNSPSAHYRPPPNLNQPQNGSAGYYRPPAPQLQNSQARPQKKDGFSQFMPSATTKNPYAQ
B2: Ccr4 (protein, UniProt P31384 1-837)
chain: MNDPSLLGYPNVGPQQQQQQQQQQHAGLLGKGTPNALQQQLHMNQLTGIPPPGLMNNSDVHTSSNNNSRQLLDQLANGNANMLNMNMDNNNNNNNNNNNNNNNGGGSGVMMNASTAAVNSIGMVPTVGTPVNINVNASNPLLHPHLDDPSLLNNPIWKLQLHLAAVSAQSLGQPNIYARQNAMKKYLATQQAQQAQQQAQQQAQQQVPGPFGPGPQAAPPALQPTDFQQSHIAEASKSLVDCTKQALMEMADTLTDSKTAKKQQPTGDSTPSGTATNSAVSTPLTPKIELFANGKDEANQALLQHKKLSQYSIDEDDDIENRMVMPKDSKYDDQLWHALDLSNLQIFNISANIFKYDFLTRLYLNGNSLTELPAEIKNLSNLRVLDLSHNRLTSLPAELGSCFQLKYFYFFDNMVTTLPWEFGNLCNLQFLGVEGNPLEKQFLKILTEKSVTGLIFYLRDNRPEIPLPHERRFIEINTDGEPQREYDSLQQSTEHLATDLAKRTFTVLSYNTLCQHYATPKMYRYTPSWALSWDYRRNKLKEQILSYDSDLLCLQEVESKTFEEYWVPLLDKHGYTGIFHAKARAKTMHSKDSKKVDGCCIFFKRDQFKLITKDAMDFSGAWMKHKKFQRTEDYLNRAMNKDNVALFLKLQHIPSGDTIWAVTTHLHWDPKFNDVKTFQVGVLLDHLETLLKEETSHNFRQDIKKFPVLICGDFNSYINSAVYELINTGRVQIHQEGNGRDFGYMSEKNFSHNLALKSSYNCIGELPFTNFTPSFTDVIDYIWFSTHALRVRGLLGEVDPEYVSKFIGFPNDKFPSDHIPLLARFEFMKTNTGSKKV
B3: Lge1 (protein, UniProt Q02796 1-332)
chain: MSGYTGNNYSRYSSTPPRQRGGYHHARRSRGGAGGSYYRGGNASYGARYNSDYEQPPQEGDLRQTGAYYRNGYTDTRPYYSANSRHYQAQPSPRYNNGTNSYHLPQRGNSQDTNGRTTSASQEDNDEKRVKSRYRNMQADHPRQQPMSVGSTSSRNGSSGNSSTSSTSNGLPPPPSVSSITNNRSYHSSAYPYSSSHTYNNYHHRETPPPPPSNGYYAKGYPVHVPENRSNSDGSSSSVVKKKRILDMKDSPFIYLTDFDKNVKKTNNTESECEKAREVFKESDSIDSALEELNLKINSNELELRLLNNQCDKHALNIQLTQEKLDSLLLMQ
B4: Cln1 (protein, UniProt P20437 1-546)
chain: MNHSEVKTGLIVTAKQTYYPIELSNAELLTHYETIQEYHEEISQNVLVQSSKTKPDIKLIDQQPEMNPHQTREAIVTFLYQLSVMTRVSNGIFFHAVRFYDRYCSKRVVLKDQAKLVVGTCLWLAAKTWGGCNHIINNVSIPTGGRFYGPNPRARIPRLSELVHYCGGSDLFDESMFIQMERHILDTLNWDVYEPMINDYILNVDENCLIQYELYKNQLQNNNSNGKEWSCKRKSQSSDDSDATVEEHISSSPQSTGLDGDTTTMDEDEELNSKIKLINLKRFLIDLSCWQYNLLKFELYEICNGMFSIINKFTNQDQGPFLSMPIGNDINSNTQTQVFSIIINGIVNSPPSLVEVYKEQYGIVPFILQVKDYNLELQKKLQLASTIDLTRKIAVNSRYFDQNASSSSVSSPSTYSSGTNYTPMRNFSAQSDNSVFSTTNIDHSSPITPHMYTFNQFKNESACDSAISVSSLPNQTQNGNMPLSSNYQNMMLEERNKENRIPNSSSAEIPQRAKFMTTGIFQNTGELTNRASSISLSLRNHNSSQL

The binders below were run against T1, Cip1-13myc (S. cerevisiae) (assay: affinity purification with mass spectrometry; large-scale anti-myc immunoprecipitation of Cip1-13myc from extract of about 10 g of exponentially growing cells; 6 washes with lysis buffer; elution with 8 M urea; differential SDS-PAGE bands analysed by mass spectrometry; mock IP from untagged cells as control).

| binding | Binder |
| --- | --- |
| binds | B1 |
| binds | B2 |
| binds | B3 |
| binds | B4 |

No constants are given. Whether binding was seen depends on the method and setting. In cells and extracts the contact can be indirect. A yes stands for co-enrichment or nearness to the bait. Other partners may have been found. Sequences can lack the tags named with a protein.
